At least one compound was matched to its structure with a doubt left.
Test system: DIO-NASH mice
Experiment: Liver hydroxyproline (HP) at termination, colorimetric assay
Format: in vivo, male C57BL/6JRj mice
Settings: group mean, CHS-131 High dose (alone or combined)
Experimental: The liver post-biopsy for histological analyses was removed by dissection from the left lateral lobe, fixated in 4% formalin for 20-24 h, and subsequently embedded in paraffin. Liver biopsies for liver triglycerides and total cholesterol were dissected from the medial lobe, snap frozen in liquid nitrogen, and stored at −80° C., while liver biopsies for hydroxyproline were dissected from the caudal lobe (the entire lobe), snap frozen in liquid nitrogen and stored at −80° C. Finally, a liver sample for RNA isolation and gene expression analysis was dissected from the left lateral lobe, snap frozen in liquid nitrogen, and stored at −80° C. until processing.
For liver hydroxyproline (HP; a protein marker of fibrosis) quantification, liver samples were homogenized in 6 M HCl and hydrolyzed to degrade collagen. The samples were centrifuged, and the hydroxyproline content measured in duplicates in the supernatant, using a colorimetric assay (Quickzyme Biosciences) according to the manufacturer's instructions.
Relative liver hydroxyproline (HP) (μg/mg of liver) at termination. Values expressed as mean of n=12-14+SEM.
Total liver hydroxyproline (HP) (μg/liver) at termination. Values expressed as mean of n=12-14+SEM.

CCCCCCCCCCCCCCCC(=O)N[C@@H](CCC(=O)NCCCC[C@H](NC(=O)[C@H](C)NC(=O)[C@H](C)NC(=O)[C@H](CCC(N)=O)NC(=O)CNC(=O)[C@H](CCC(=O)O)NC(=O)[C@H](CC(C)C)NC(=O)[C@H](Cc1ccc(O)cc1)NC(=O)[C@H](CO)NC(=O)[C@H](CO)NC(=O)[C@@H](NC(=O)[C@H](CC(=O)O)NC(=O)[C@H](CO)NC(=O)[C@@H](NC(=O)[C@H](Cc1ccccc1)NC(=O)[C@@H](NC(=O)CNC(=O)[C@H](CCC(=O)O)NC(=O)[C@H](C)NC(=O)[C@@H](N)Cc1cnc[nH]1)[C@@H](C)O)[C@@H](C)O)C(C)C)C(=O)N[C@@H](CCC(=O)O)C(=O)N[C@@H](Cc1ccccc1)C(=O)N[C@H](C(=O)N[C@@H](C)C(=O)N[C@@H](Cc1c[nH]c2ccccc12)C(=O)N[C@@H](CC(C)C)C(=O)N[C@H](C(=O)N[C@@H](CCCNC(=N)N)C(=O)NCC(=O)N[C@@H](CCCNC(=N)N)C(=O)NCC(=O)O)C(C)C)[C@@H](C)CC)C(=O)O [Liraglutide, reference compound]
Total liver hydroxyproline (HP) at termination: 131 μg/liver
